In paper PMC4703863:
The exact form of at least one protein or probe is not confirmed. For some of these results: A negative result means that nothing was seen under these conditions. For some of these results: At least one verdict rests on a figure or table, not on a statement of the authors.

The chains behind the UniProt entries cited, without tags or fusion partners. Where a name states a change or a piece, a line headed by the entry shows the natural chain unless it says otherwise.
UniProt Q9GZX7: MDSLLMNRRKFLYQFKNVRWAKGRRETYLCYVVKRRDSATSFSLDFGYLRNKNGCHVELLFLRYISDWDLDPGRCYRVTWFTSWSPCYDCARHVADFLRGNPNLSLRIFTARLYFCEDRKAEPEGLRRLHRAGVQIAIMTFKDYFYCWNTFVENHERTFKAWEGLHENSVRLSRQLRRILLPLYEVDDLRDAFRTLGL

Legend:
[1] = molecular target: GST-AID-His6 (Cy5-labelled) (UniProt Q9GZX7); test: smFRET; conditions: Transcription-scanning buffer: 40 mM Tris-HCl pH 7.9, 5 mM Mg2+, 60 mM Na+, 0.2 mg/ml BSA, 2 mM Trolox, PCA/PCD, 0.5-5 nM RNAP, recombinant protein, protein details: N-terminal GST, C-terminal His6, Cy5-OEG-trisNTA
[2] = test system: GST-AID-His6 (Cy5-labelled) + His6-T7 RNA polymerase; test: smFRET; conditions: Transcription-scanning buffer: 40 mM Tris-HCl pH 7.9, 5 mM Mg2+, 60 mM Na+, 0.2 mg/ml BSA, 2 mM Trolox, PCA/PCD, 0.5-5 nM RNAP, 20 nM AID, recombinant protein, label: 5'-biotin strand 1, 5'-Cy3 strand 2
[3] = test system: GST-AID-His6 (Cy5-labelled) + His6-T7 RNA polymerase; test: smFRET co-localization; conditions: Cy3-RNAP and Cy5-AID, unlabelled DNA, no direct AID-RNAP contact; Transcription-scanning buffer: 40 mM Tris-HCl pH 7.9, 5 mM Mg2+, 60 mM Na+, 0.2 mg/ml BSA, 2 mM Trolox, PCA/PCD; 0.5-5 nM RNAP, 20 nM AID; recombinant protein; label: 5'-biotin strand 1, 5'-Cy3 strand 2
[4] = mean residence ~4 min, 20 nM …, label: 5'-Cy3 and 3'-biotin on anchor strand

CAGAGATGCAGCCGTCCGTATCCGTATTGTAGAAAAGGGGAAAGCAAAGAGGAAAGGTGAGGAGGT (double strand) [No-promoter dsDNA 66-mer]
binding result ([1]; RNAP present, 20 nM AID, label: 5'-biotin strand 1, 5'-Cy3 strand 2): no binding

CCCTACATCCATTCCTCGCGTTTTTTTTTTTTTTTAACAGCAACTTTTTTTTTTTTTTTTTTTTTTTTTTTTGACGACGACTTTTTTTTTTT / CGCGAGGAATGGATGTAGGG [pdT 5' (WRC)3 3' (GAC)3]
binding result [1, 4]: binds

CCCTACATCCATTCCTCGCGTTTTTTTTTTTTTTTAACTTTTTTTTTTTTTTTTTTTTTTTTTTTTTTTTTTTTTTTTTTTTTTTTTTTTTT / CGCGAGGAATGGATGTAGGG [pdT 5' AAC (hot motif)]
binding result ([1]; low salt, 20 nM AID, label: 5'-Cy3 and 3'-biotin on anchor strand): binds
binding result [1, 4]: binds

CCCTACATCCATTCCTCGCGTTTTTTTTTTTTTTTAAUTTTTTTTTTTTTTTTTTTTTTTTTTTTTTTTTTTTTTTTTTTTTTTTTTTTTTT / CGCGAGGAATGGATGTAGGG [pdT 5' AAU (product motif)]
binding result ([1]; mean residence ~4 min, dU, 20 nM AID, label: 5'-Cy3 and 3'-biotin on anchor strand): binds

CCCTACATCCATTCCTCGCGTTTTTTTTTTTTTTTGACGACGACTTTTTTTTTTTTTTTTTTTTTTTTTTTTAACAGCAACTTTTTTTTTTT / CGCGAGGAATGGATGTAGGG [pdT 5' (GAC)3 3' (WRC)3]
binding result [1, 4]: binds

CCCTACATCCATTCCTCGCGTTTTTTTTTTTTTTTGACTTTTTTTTTTTTTTTTTTTTTTTTTTTTTTTTTTTTTTTTTTTTTTTTTTTTTT / CGCGAGGAATGGATGTAGGG [pdT 5' GAC (non-hot motif)]
binding result [1, 4]: binds

CCCTACATCCATTCCTCGCGTTTTTTTTTTTTTTTTTTTTTTTTTTTTTTTTTTTTTTTTTTTTTTTTTTTTTTTTTTTTTTTTTTTTTTTT / CGCGAGGAATGGATGTAGGG [pdT (no motif)]
binding result [1, 4]: binds

TTTCAGAGATGCATAATACGACTCACTATAGGGAGAAAAGGGGAAAGCAAAGAGGAAAGGTGAGGAGGT / ACCTCCTCACCTTTCCTCAAAAAAAACCCCTTTTCTCCCTATAGTGAGTCGTATTATGCATCTCTG [8-nt bubble dsDNA]
binding result ([1]; bound up to ~250 s, 20 nM AID, label: 5'-biotin strand 1, 5'-Cy3 strand 2): binds

TTTCAGAGATGCATAATACGACTCACTATAGGGAGAAAAGGGGAAAGCAAAGAGGAAAGGTGAGGAGGT / ACCTCCTCACCTTTCCTCTTTGCTTTCCCCTTTTCTCCCTATAGTGAGTCGTATTATGCATCTCTG [69/66-mer T7 promoter dsDNA (promoter 39 bp from Cy3 end)]
binding result ([1]; no RNAP, 20 nM AID, 20 nM AID, label: 5'-biotin strand 1, 5'-Cy3 strand 2): no binding
binding result ([2]; no NTPs, static promoter binding ~0.2 FRET): binds
binding result ([2]; with NTPs, PB, MB and SB classes): binds
binding result [3]: binds
